Data from patent US9212209B2, “Screening methods for spinal muscular atrophy” (Indiana University Research and Technology Corporation, priority 2012, dated 2015).
Some entries share one result that the patent states for a list of compounds.

Key:
[1] = test system: SMN2-luciferase reporter; assay: SMN2-luciferase reporter assay (clonal HEK-293 SMN2-luc cells); type: cell-based, human; conditions: twelve-point dose response
Protocol: The reporter cell lines were plated at 50,000 cells per well in 96-well plates and incubated overnight. Compounds were added to each well and incubated at 37° C. overnight. The final DMSO concentration was 0.1%. Luciferase activity was assayed using either STEADYGLO (PROMEGA E2510) or DUALGLO (PROMEGA E2920) luciferase using the WALLAC ENVISION multilabel reader. For detailed assay conditions see Table 2A. All data points were transformed from CPS to percent increase over basal expression in the treated control wells (DMSO or H2O as appropriate).
Plates were sealed with porous paper tape and incubated for 24 hours. […] For comparison, data points were transformed from CPS to percent activation over basal expression in the DMSO treated control wells.
For comparison, all data points are expressed as percent increase over basal luciferase expression in the control cells.

[2] = test system: SMN-luciferase fusion protein; assay: Immunoblot of SMN-luciferase fusion protein in SMN2-luc cells; type: cell-based, human; conditions: SMN2-luc cell line, 24 hours

Compound	increase of SMN2-luciferase levels / luciferase expression [1]	increase in SMN-luciferase protein [2]
Cc1ccc(-c2cc(-c3ccccc3Cl)[nH]n2)c(O)c1 [LDN-72939]	at least 60%	–
O=C(CCCCCCC(=O)Nc1ccccc1)NO [SAHA, suberoylanilide hydroxamic acid]	–	greater than 9 fold
Cc1c(C(=O)NCCC(C)C)oc2ccc3c(c12)C(=O)CC(C)(C)O3 [LDN-79199]	at least 60%	–
